Article doi:10.1101/2024.09.17.613393
These are yes or no findings as the source states them, for the method shown. In cells and extracts the contact can be indirect. Some entries that bind do so weakly or less than the wild type. For part of these data: Tags and fused reporters may be left off the sequences shown. One block for each binder: values may come before it.

What was measured:
[1] = molecular target: T1, mouse ZBP1 (mZBP1) expressed in HT29 cells (mouse), Q9QY24; assay: co-IP; details: remark: other sources report otherwise
T1 chain: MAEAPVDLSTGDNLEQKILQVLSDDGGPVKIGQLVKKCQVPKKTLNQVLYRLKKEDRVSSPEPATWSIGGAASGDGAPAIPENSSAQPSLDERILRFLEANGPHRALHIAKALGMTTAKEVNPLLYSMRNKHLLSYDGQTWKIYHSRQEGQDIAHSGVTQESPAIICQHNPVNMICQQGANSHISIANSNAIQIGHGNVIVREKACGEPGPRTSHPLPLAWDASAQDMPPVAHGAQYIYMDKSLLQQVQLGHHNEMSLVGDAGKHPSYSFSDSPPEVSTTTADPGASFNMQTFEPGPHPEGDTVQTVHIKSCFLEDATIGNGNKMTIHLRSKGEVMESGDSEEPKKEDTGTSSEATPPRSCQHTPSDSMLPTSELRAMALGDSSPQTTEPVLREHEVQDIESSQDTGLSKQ

[2] = molecular target: T2, FLAG-tagged human ZBP1 (Flag-hZBP1) (human), Q9H171; assay: co-IP; details: remark: other sources report otherwise
T2 chain: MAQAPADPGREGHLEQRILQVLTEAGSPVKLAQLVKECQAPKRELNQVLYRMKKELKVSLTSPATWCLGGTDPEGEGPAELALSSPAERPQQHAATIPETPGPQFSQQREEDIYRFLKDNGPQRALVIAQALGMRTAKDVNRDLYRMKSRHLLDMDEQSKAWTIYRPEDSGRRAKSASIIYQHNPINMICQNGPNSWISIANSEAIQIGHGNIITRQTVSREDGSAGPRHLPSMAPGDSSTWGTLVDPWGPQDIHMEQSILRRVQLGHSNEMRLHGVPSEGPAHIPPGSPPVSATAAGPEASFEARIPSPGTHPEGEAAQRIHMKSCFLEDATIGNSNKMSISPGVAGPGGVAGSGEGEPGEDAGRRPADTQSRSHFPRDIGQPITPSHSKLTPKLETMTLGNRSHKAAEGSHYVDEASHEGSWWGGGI

binding [1]: binds
B1: RIPK3 (human, endogenous), Q9Y572 1-518 (protein)
chain: MSCVKLWPSGAPAPLVSIEELENQELVGKGGFGTVFRAQHRKWGYDVAVKIVNSKAISREVKAMASLDNEFVLRLEGVIEKVNWDQDPKPALVTKFMENGSLSGLLQSQCPRPWPLLCRLLKEVVLGMFYLHDQNPVLLHRDLKPSNVLLDPELHVKLADFGLSTFQGGSQSGTGSGEPGGTLGYLAPELFVNVNRKASTASDVYSFGILMWAVLAGREVELPTEPSLVYEAVCNRQNRPSLAELPQAGPETPGLEGLKELMQLCWSSEPKDRPSFQECLPKTDEVFQMVENNMNAAVSTVKDFLSQLRSSNRRFSIPESGQGGTEMDGFRRTIENQHSRNDVMVSEWLNKLNLEEPPSSVPKKCPSLTKRSRAQEEQVPQAWTAGTSSDSMAQPPQTPETSTFRNQMPSPTSTGTPSPGPRGNQGAERQGMNWSCRTPEPNPVTGRPLVNIYNCSGVQVGDNNYLTMQQTTALPTWGLAPSGKGRGLQHPPPVGSQEGPKDPEAWSRPQGWYNHSGK

binding [2]: binds
binding [1]: binds
B2: RIPK1 (human, endogenous), Q13546 1-671 (protein)
chain: MQPDMSLNVIKMKSSDFLESAELDSGGFGKVSLCFHRTQGLMIMKTVYKGPNCIEHNEALLEEAKMMNRLRHSRVVKLLGVIIEEGKYSLVMEYMEKGNLMHVLKAEMSTPLSVKGRIILEIIEGMCYLHGKGVIHKDLKPENILVDNDFHIKIADLGLASFKMWSKLNNEEHNELREVDGTAKKNGGTLYYMAPEHLNDVNAKPTEKSDVYSFAVVLWAIFANKEPYENAICEQQLIMCIKSGNRPDVDDITEYCPREIISLMKLCWEANPEARPTFPGIEEKFRPFYLSQLEESVEEDVKSLKKEYSNENAVVKRMQSLQLDCVAVPSSRSNSATEQPGSLHSSQGLGMGPVEESWFAPSLEHPQEENEPSLQSKLQDEANYHLYGSRMDRQTKQQPRQNVAYNREEERRRRVSHDPFAQQRPYENFQNTEGKGTAYSSAASHGNAVHQPSGLTSQPQVLYQNNGLYSSHGFGTRPLDPGTAGPRVWYRPIPSHMPSLHNIPVPETNYLGNTPTMPFSSLPPTDESIKYTIYNSTGIQIGAYNYMEIGGTSSSLLDSTNTNFKEEPAAKYQAIFDNTTSLTDKHLDPIRENLGKHWKNCARKLGFTQSQIDEIDHDYERDGLKEKVYQMLQKWVMREGIKGATVGKLAQALHQCSRIDLLSSLIYVSQN
